Data as given in publication PMC12273484.
No constants are given. Whether binding was seen depends on the method and setting. In cells and extracts the contact can be indirect. Some entries that bind do so weakly or less than the wild type. For part of these data: Sequences can lack the tags named with a protein.

Amino acid sequences for entries named in this document (tags omitted). A change or cut given only in a name is not applied to a line headed by its entry.
UniProt Q7Z434: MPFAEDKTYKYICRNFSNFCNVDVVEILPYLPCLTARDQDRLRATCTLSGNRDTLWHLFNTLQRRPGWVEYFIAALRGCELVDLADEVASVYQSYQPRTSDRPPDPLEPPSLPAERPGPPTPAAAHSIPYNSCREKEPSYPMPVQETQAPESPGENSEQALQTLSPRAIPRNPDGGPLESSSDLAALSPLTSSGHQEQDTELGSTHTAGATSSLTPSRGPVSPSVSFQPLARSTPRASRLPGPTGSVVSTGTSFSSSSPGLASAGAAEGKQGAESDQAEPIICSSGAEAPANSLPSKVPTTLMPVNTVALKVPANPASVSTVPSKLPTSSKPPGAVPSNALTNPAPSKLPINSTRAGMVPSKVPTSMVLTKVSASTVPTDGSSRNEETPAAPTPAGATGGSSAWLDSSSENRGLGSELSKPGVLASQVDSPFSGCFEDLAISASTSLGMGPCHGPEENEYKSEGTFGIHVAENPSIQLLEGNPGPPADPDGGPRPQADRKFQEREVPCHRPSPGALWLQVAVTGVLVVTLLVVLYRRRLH

How the values were obtained:
[1] = biological target: T1, TXNIP 174-300 fragment, Flag-tagged (human) (UniProt Q9H3M7); test: co-IP; 293T cells co-transfected with Flag- and HA-tagged plasmids (1.5 ug each), lysed after 48 h; lysate incubated overnight at 4 °C with IP beads pre-loaded with Flag or HA antibody, washed three times, Western blot
T1 sequence: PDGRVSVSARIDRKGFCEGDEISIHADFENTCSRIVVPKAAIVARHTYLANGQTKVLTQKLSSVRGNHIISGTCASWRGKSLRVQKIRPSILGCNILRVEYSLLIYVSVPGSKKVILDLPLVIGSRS

[2] = biological target: T2, human TXNIP-Flag (thioredoxin-interacting protein) (human) (UniProt Q9H3M7); test: as above
T2 sequence: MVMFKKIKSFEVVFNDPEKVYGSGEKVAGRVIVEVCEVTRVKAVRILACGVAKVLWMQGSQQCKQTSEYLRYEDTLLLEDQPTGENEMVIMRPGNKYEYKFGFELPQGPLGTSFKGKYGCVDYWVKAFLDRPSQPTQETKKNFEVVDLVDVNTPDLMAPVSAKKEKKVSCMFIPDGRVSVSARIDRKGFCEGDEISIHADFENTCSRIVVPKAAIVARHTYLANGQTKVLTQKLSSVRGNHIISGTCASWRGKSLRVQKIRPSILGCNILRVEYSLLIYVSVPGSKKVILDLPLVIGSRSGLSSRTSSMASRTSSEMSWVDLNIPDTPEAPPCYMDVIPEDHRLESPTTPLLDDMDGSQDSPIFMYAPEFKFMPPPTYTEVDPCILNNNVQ

[3] = biological target: T3, humanTXNIP-VN173 (from pBiFC-humanTXNIP-VN173) (human) (UniProt Q9H3M7); test: split reporter; BiFC with Venus fragments VN173 and VC155 in 293T cells, 1000 ng plasmids, imaged by confocal microscopy after 48 h
T3 sequence: T2 sequence

Substance: MAVS 1-180 fragment, HA-tagged (from UniProt Q7Z434 1-180) (domain or fragment)
- binding [1]: binds

Substance: MAVS-HA (from UniProt Q7Z434 1-540)
- binding [2]: binds

Substance: hMAVS-VC155 (from pBiFC-hMAVS-VC155) (from UniProt Q7Z434 1-540)
- binding [3]: binds
